# Structures can show the parent of a compound that is named as a salt. The list shows a part of the results. The calls rarely recur for the same compound in another form.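 Kinases were expressed as nanoluciferase fusions in K562 cells and luminescence was read every 4 h between 2 and 18 h as percent of control, DMSO set to 100% and a positive control to 0%. A time point counts as decreased when the signal drops significantly (2 sigma). The hit call is the authors' own, does not follow from the count of time points alone, and its rule is not shown.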
# Sequences of proteins named here, by UniProt entry; tags and fusion partners are left off. A change or cut given only in a name is not applied to a line headed by its entry.
# UniProt Q9UQM7, whole entry: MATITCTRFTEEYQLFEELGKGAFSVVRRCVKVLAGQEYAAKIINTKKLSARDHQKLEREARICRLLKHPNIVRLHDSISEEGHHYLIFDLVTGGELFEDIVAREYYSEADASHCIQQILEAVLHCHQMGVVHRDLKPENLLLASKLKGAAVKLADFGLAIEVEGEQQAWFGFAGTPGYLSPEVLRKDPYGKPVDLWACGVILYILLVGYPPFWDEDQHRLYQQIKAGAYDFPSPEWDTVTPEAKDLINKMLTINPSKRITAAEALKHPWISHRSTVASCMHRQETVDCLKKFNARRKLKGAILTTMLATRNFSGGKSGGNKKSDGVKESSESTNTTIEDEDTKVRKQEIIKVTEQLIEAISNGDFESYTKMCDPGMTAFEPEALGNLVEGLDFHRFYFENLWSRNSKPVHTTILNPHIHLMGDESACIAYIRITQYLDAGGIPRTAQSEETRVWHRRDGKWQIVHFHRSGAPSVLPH
# UniProt Q13555: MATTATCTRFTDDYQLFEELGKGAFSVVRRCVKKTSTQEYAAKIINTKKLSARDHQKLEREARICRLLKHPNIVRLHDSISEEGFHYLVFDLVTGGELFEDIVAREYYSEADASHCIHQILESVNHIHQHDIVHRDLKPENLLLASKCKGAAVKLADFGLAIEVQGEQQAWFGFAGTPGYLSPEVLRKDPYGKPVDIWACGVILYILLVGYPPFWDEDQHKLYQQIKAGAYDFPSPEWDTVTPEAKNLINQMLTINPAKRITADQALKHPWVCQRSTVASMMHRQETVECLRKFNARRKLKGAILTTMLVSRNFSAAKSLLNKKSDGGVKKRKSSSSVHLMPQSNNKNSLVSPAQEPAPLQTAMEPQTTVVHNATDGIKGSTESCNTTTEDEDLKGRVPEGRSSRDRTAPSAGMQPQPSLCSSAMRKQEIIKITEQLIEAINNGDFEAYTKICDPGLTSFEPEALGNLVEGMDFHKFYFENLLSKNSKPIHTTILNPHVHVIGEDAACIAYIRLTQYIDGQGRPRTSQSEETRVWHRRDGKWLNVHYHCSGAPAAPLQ
# UniProt Q15131: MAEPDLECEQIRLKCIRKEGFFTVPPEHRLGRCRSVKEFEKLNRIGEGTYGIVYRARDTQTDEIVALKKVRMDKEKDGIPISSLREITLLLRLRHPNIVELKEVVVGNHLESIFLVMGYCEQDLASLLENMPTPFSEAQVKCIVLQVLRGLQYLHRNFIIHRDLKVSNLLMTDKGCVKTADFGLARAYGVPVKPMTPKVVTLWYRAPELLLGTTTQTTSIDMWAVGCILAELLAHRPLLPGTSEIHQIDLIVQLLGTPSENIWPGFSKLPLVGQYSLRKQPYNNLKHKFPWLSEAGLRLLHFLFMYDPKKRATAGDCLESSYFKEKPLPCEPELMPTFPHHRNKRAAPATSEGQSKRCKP
# UniProt Q00526: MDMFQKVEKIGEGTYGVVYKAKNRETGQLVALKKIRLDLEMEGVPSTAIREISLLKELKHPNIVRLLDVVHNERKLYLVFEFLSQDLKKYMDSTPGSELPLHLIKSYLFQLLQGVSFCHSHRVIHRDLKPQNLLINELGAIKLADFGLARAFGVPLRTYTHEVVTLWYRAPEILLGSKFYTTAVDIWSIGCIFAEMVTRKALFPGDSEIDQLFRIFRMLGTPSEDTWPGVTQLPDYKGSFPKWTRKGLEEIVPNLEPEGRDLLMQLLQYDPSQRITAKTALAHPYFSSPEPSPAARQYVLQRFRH
# UniProt Q00535, whole entry, looked up: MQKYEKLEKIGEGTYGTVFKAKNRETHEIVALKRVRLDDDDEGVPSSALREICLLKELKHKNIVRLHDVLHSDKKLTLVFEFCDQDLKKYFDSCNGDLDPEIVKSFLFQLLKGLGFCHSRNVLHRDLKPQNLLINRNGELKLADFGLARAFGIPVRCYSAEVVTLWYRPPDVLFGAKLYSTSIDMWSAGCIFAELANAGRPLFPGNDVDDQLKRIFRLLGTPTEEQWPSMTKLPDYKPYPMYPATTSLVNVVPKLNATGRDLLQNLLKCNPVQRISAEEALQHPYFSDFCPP
# UniProt Q00534, whole entry: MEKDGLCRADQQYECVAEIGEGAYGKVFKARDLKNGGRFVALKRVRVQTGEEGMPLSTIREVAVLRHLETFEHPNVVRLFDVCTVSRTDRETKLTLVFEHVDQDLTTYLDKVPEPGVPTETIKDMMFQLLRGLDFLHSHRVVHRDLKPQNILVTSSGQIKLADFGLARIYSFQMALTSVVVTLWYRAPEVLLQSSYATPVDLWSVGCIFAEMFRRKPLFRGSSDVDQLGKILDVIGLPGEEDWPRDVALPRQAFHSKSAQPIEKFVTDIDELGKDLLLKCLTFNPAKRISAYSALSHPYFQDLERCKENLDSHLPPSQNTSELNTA
# UniProt O96017, whole entry: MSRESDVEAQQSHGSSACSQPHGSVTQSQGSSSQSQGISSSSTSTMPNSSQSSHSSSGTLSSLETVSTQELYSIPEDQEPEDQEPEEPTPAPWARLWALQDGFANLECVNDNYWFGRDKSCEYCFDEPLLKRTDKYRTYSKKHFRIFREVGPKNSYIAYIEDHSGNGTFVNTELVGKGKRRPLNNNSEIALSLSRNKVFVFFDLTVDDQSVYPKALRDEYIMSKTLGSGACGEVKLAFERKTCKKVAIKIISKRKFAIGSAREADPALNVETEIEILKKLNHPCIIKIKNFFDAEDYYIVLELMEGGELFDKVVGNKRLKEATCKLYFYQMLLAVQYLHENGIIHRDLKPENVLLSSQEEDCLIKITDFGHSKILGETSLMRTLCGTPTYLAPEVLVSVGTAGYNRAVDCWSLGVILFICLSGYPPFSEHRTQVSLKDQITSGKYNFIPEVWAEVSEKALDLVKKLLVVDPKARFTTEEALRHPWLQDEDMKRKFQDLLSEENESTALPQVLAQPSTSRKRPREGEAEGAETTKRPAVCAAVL
# UniProt P07333, whole entry: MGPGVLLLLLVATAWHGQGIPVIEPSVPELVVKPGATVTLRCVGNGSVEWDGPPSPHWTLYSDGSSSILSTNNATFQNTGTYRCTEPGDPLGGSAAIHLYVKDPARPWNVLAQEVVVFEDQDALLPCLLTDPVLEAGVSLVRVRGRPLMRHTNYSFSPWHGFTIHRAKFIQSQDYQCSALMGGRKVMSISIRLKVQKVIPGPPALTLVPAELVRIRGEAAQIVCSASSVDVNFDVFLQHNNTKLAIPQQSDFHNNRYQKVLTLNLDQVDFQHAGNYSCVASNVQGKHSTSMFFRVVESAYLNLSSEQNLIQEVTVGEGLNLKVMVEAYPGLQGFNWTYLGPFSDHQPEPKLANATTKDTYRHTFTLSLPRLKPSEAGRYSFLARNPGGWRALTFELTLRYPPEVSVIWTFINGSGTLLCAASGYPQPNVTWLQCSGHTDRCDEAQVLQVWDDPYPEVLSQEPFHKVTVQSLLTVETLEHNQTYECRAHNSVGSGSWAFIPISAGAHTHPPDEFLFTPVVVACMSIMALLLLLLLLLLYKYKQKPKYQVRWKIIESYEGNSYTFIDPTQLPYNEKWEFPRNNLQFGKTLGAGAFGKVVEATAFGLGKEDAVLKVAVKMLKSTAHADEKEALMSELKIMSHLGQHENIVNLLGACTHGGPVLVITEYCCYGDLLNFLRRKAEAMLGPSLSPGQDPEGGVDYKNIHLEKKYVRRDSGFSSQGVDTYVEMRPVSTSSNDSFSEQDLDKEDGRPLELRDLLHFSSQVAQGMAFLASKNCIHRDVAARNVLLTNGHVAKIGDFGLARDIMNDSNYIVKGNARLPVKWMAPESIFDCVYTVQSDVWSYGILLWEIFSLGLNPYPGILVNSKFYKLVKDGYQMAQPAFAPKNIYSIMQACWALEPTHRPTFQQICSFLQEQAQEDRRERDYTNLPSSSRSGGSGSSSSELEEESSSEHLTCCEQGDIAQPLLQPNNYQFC
# UniProt P41240: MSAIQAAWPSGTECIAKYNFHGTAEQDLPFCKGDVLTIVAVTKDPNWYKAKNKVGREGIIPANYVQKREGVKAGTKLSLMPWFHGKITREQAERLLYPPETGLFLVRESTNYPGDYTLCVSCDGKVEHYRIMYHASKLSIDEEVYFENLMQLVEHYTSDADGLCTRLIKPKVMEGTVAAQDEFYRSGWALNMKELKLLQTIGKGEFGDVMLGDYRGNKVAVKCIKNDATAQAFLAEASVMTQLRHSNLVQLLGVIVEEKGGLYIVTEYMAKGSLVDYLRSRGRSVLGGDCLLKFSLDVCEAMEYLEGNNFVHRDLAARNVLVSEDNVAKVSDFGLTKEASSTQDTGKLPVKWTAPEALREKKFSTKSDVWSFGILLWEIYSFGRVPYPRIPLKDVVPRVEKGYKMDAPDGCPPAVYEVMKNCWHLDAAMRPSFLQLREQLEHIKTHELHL
# Key:
# Test in all cases: number of time points (of 5) at which kinase-Nluc abundance scored as decreased, DMSO-normalised (count); higher = more persistent destabilization
# Conditions in all cases: K562; 2-18 h
# CAMK2A = CAMK2A (UniProt Q9UQM7)
# CAMK2G = CAMK2G (UniProt Q13555)
# CDK10 = CDK10 (UniProt Q15131)
# CDK2 = CDK2 (UniProt P24941)
# CDK3 = CDK3 (UniProt Q00526)
# CDK5 = CDK5 (UniProt Q00535)
# CDK6 = CDK6 (UniProt Q00534)
# CHEK2 = CHEK2 (UniProt O96017)
# CSF1R = CSF1R (UniProt P07333)
# CSK = CSK (UniProt P41240)
Structure (SMILES),number of time points (CAMK2A),number of time points (CAMK2G),number of time points (CDK10),number of time points (CDK2),number of time points (CDK3),number of time points (CDK5),number of time points (CDK6),number of time points (CHEK2),number of time points (CSF1R),number of time points (CSK)
"O=C(/C=C/c1ccc(O)c(O)c1)OC1CC(OC(=O)/C=C/c2ccc(O)c(O)c2)(C(=O)O)CC(O)C1O (stereo not given) [1,3-Dicaffeoylquinic acid] (10 µM)",0,0,0,0,0,0,0,0,0,0
Cc1cc(Nc2cc(Cl)nc(Oc3ccc([N+](=O)[O-])cc3)n2)n[nH]1 [Autophinib] (2.5 µM),0,0,0,0,0,0,0,0,0,0
CC(C)CN[C@H]1CS(=O)(=O)C[C@@H]1S(=O)(=O)c1ccc(Cl)cc1 (10 µM),0,0,0,0,0,0,0,0,0,0
O=C1Nc2nc(-c3c(O)cccc3OCC3CC3)cc([C@@H]3CCCNC3)c2CO1 [Bay 65-1942 (hydrochloride)] (10 µM),0,0,0,0,0,0,0,0,0,0
O=C1NC(=O)/C(=C/c2ccc3c(c2)OC(F)(F)O3)S1 (10 µM),0,0,0,0,0,0,0,0,0,0
Cn1cc(Nc2nccc(N3C[C@H]4CC[C@@H](C3)N4C(=O)[C@@H]3CC3(F)F)n2)cn1 (10 µM),0,0,0,0,0,0,0,0,0,0
Cc1cc(O)c(C(C)C)cc1N=O [Poloxime] (10 µM),0,0,0,0,0,0,0,0,0,0
C/C(=C1/C(=O)Nc2ccc(NC(N)=O)cc21)c1ccc[nH]1 (10 µM),0,0,0,0,0,0,0,0,0,0
CC1=C2C(=O)O[C@@H](c3ccoc3)[C@]2(C)CCC1 [Fraxinellone] (10 µM),0,0,0,0,0,0,0,0,0,0
CCc1cc(O)c(F)cc1-c1ccc2c(-c3nc4c([nH]3)CN(C3CCN(C)CC3)CC4)n[nH]c2c1 [JAK-IN-5 (hydrochloride)] (2 µM),0,0,0,0,0,0,0,1,0,0
COc1cc(F)c(F)c(Nc2ccc(I)cc2F)c1NS(=O)(=O)C1(C[C@H](O)CO)CC1 [Refametinib] (10 µM),0,0,0,0,0,0,0,0,0,0
COc1cc2ncn(-c3cc(OCc4ccccc4S(C)(=O)=O)c(C#N)s3)c2cc1OC (10 µM),0,0,0,0,0,0,0,0,0,0
CCN(CC)c1ccc2cc(C(=O)N3CCN(C(=O)C4=Cc5c(Br)cccc5S4(=O)=O)CC3)c(=O)oc2c1 (2 µM),0,0,0,0,0,0,0,0,0,0
COc1c(NC(=O)C(=O)c2ccc(OCCN3CCOCC3)c3ccccc23)cc(C(C)(C)C)cc1NS(C)(=O)=O (2.5 µM),0,0,0,0,0,0,0,0,0,0
CNC(=O)c1ccc(-c2cnc3cnc(C(=O)N(C)c4ccc(Cl)cc4)cn23)cc1 (2.5 µM),0,0,0,0,0,0,0,0,0,0
Cc1cc(Nc2cc3ncccc3c(N[C@@H]3C[C@H]4CC[C@@H](C3)N4CCC#N)n2)n[nH]1 [Izencitinib] (10 µM),0,0,0,0,0,1,0,0,0,0
Cc1ccc(NC(=S)NNc2c([N+](=O)[O-])cc(C(F)(F)F)cc2[N+](=O)[O-])cc1Cl (10 µM),0,0,0,0,0,0,0,0,0,0
CC(C)(C)c1ccc(S(=O)(=O)Nc2ccc(-n3ccnc3)cc2)cc1 (10 µM),0,0,0,0,0,0,0,0,0,0
CCn1c(C(=O)N(C2CC2)C2CC2)cc2c3c(ncn3C)c(Nc3cc(C)n(C)n3)nc21 (10 µM),0,0,0,0,0,0,0,0,0,0

Structure (SMILES),number of time points (CAMK2A),number of time points (CAMK2G),number of time points (CDK10),number of time points (CDK2),number of time points (CDK3),number of time points (CDK5),number of time points (CDK6),number of time points (CHEK2),number of time points (CSF1R),number of time points (CSK)
COc1cc(C(N)=O)nc(-c2cccc(C#C[C@]3(O)CCN(C)C3=O)c2)c1 (10 µM),0,0,0,0,0,0,0,0,0,0
O=C(NCCCNC(=O)Nc1cccc(C2=NCCN2)c1)Nc1cccc(C2=NCCN2)c1 [p32 Inhibitor M36] (10 µM),0,0,0,0,0,0,0,0,0,0
O=C(NCCO)c1ccc2c(c1)nc(Nc1cccc(Cl)c1)c1ccncc12 [CK2 inhibitor 2] (10 µM),0,0,0,0,0,0,0,0,0,0
CNc1nc(Nc2cnn(C3CCN(C4COC4)CC3F)c2Cl)ncc1C(F)(F)F (stereo not given) (10 µM),0,0,0,0,0,0,0,0,0,0
COC1(C(=O)N2Cc3nc(Cl)nc(N[C@H](C)c4cc(N)cc(C(F)(F)F)c4)c3C2)CCOCC1 (10 µM),0,0,0,0,0,0,0,0,0,0
Cc1ccc(S(=O)(=O)Nc2ccccc2C=Nc2ccccc2NS(=O)(=O)c2ccc(C)cc2)cc1 (10 µM),0,0,0,0,0,0,0,0,0,0
O=C(Nc1ccc2[nH]nc(-c3ccncc3)c2c1)[C@@H]1CCN(CC(=O)N2CCN(c3ccc(-c4ncccn4)cc3)CC2)C1 (2.5 µM),0,0,0,0,0,0,0,0,0,0
CCn1c(-c2nonc2N)nc2cnc(Oc3cccc(NC(=O)c4ccc(OCCN5CCOCC5)cc4)c3)cc21 (10 µM),0,0,0,0,0,0,0,0,0,0
CN1C(=O)C(Cc2c[nH]c3ccccc23)NC1=S (stereo not given) [Necrostatin-1] (10 µM),0,0,0,0,0,0,0,0,0,0
CC(=O)c1c(C)c2cnc(Nc3ccc(N4CCN(CCCCNC(=O)COc5cccc6c5C(=O)N(C5CCC(=O)NC5=O)C6=O)CC4)cn3)nc2n(C2CCCC2)c1=O (stereo not given) (10 µM),0,0,0,0,0,0,0,0,0,0
O=C(Nc1ccc(F)cc1F)[C@H](NC(=S)Nc1cc(C(F)(F)F)cc(C(F)(F)F)c1)c1ccccc1 (2.5 µM),0,0,0,0,0,0,0,0,0,0
Cc1ccc2nc(NC(=O)CSc3nc4c(c(=O)n3-c3ccccc3)SCC4)sc2c1 (2 µM),0,0,0,0,0,0,0,0,0,0
COc1ccc(CC(=O)Nc2nc3c(s2)CCc2ccccc2-3)cc1OC (10 µM),0,0,0,0,0,0,0,0,0,0
N#CC(c1ccnc(NCCc2cccnc2)n1)c1nc2ccccc2s1 (stereo not given) (10 µM),1,0,0,0,0,0,0,0,0,0
COc1cc(N2CCC(N3CCN(C)CC3)CC2)ccc1Nc1ncc(Cl)c(Nc2ccccc2P(C)(C)=O)n1 [Brigatinib] (2 µM),0,0,0,0,0,0,0,0,0,0
COc1cc2c[n+](C)c3c4cc5c(cc4ccc3c2cc1OC)OCO5 [Nitidine (chloride)] (2 µM),0,0,0,0,0,0,0,0,0,0
Cc1c(CN2CCN(C(=O)[C@H](C)O)CC2)sc2c(N3CCOCC3)nc(-c3cnc(N)nc3)nc12 [Apitolisib] (10 µM),0,0,0,0,0,0,0,0,0,0
CC(C)NC(=O)N1CC[C@H](NC2=Nc3cc(F)ccc3N(CC(F)F)c3ccc(Cl)cc32)C1 (10 µM),0,0,0,0,0,0,0,0,0,0

# Among those listed so far, these have a nitro group on carbon:
Structure (SMILES),number of time points (CAMK2A),number of time points (CAMK2G),number of time points (CDK10),number of time points (CDK2),number of time points (CDK3),number of time points (CDK5),number of time points (CDK6),number of time points (CHEK2),number of time points (CSF1R),number of time points (CSK)
Cc1cc(Nc2cc(Cl)nc(Oc3ccc([N+](=O)[O-])cc3)n2)n[nH]1 [Autophinib] (2.5 µM),0,0,0,0,0,0,0,0,0,0
Cc1ccc(NC(=S)NNc2c([N+](=O)[O-])cc(C(F)(F)F)cc2[N+](=O)[O-])cc1Cl (10 µM),0,0,0,0,0,0,0,0,0,0
